# Measured values as given in the supplement of paper PMC12819154, “High-throughput peptide-centric local stability assay extends protein–ligand identification to membrane proteins, tissues and bacteria” (Nature Structural & Molecular Biology, 2025).
# By UniProt entry, the sequences of proteins in these tests, tags left out. Where a name states a change or a piece, a line headed by the entry shows the natural chain unless it says otherwise.
# UniProt Q6PEV3: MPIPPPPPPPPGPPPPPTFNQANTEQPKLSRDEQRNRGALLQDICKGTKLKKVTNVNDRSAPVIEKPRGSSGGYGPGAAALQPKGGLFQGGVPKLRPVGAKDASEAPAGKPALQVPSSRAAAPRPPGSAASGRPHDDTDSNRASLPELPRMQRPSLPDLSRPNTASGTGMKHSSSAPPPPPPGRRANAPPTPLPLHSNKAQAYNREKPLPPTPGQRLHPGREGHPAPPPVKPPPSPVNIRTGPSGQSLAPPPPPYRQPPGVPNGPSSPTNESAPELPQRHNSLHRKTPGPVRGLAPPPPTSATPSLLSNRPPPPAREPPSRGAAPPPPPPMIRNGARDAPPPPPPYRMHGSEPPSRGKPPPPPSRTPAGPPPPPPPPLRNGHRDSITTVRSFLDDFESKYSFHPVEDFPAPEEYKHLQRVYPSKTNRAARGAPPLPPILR
# UniProt Q6PGH0: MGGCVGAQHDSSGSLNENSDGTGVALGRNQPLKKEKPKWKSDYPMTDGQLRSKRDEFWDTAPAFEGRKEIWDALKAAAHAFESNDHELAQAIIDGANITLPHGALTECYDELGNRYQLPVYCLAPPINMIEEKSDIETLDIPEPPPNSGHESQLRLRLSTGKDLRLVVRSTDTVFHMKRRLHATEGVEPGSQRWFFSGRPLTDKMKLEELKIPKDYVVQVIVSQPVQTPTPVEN
# UniProt Q6NXK5: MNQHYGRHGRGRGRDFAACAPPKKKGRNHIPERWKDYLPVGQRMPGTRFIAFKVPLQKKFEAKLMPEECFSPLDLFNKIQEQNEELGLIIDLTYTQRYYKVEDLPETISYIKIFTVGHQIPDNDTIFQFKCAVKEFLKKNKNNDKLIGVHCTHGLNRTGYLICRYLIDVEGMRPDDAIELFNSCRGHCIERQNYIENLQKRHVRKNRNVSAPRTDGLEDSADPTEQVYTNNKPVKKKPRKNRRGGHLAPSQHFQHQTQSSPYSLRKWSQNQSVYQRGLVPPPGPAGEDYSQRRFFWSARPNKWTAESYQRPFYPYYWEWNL
# UniProt Q6P5C5: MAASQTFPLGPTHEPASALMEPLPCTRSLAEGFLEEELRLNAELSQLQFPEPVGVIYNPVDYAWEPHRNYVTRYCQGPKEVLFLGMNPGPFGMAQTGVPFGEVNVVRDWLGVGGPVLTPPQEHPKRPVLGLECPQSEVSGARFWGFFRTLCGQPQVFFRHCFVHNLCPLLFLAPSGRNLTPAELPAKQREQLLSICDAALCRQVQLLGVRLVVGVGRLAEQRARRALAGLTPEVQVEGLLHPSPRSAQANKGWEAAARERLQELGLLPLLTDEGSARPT
# UniProt Q6GQS1: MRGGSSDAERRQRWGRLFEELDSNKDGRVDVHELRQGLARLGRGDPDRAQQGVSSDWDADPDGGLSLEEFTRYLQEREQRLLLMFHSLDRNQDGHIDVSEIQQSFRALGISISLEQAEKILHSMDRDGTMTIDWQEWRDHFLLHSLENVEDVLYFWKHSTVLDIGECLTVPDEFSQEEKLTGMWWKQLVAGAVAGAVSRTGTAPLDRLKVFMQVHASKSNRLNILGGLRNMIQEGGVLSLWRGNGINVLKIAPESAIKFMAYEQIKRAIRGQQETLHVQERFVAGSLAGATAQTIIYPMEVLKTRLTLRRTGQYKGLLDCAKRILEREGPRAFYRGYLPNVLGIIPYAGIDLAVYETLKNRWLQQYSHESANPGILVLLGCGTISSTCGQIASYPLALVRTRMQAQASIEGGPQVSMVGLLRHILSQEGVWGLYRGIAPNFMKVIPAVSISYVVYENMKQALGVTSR
# UniProt Q6PHU5, whole entry: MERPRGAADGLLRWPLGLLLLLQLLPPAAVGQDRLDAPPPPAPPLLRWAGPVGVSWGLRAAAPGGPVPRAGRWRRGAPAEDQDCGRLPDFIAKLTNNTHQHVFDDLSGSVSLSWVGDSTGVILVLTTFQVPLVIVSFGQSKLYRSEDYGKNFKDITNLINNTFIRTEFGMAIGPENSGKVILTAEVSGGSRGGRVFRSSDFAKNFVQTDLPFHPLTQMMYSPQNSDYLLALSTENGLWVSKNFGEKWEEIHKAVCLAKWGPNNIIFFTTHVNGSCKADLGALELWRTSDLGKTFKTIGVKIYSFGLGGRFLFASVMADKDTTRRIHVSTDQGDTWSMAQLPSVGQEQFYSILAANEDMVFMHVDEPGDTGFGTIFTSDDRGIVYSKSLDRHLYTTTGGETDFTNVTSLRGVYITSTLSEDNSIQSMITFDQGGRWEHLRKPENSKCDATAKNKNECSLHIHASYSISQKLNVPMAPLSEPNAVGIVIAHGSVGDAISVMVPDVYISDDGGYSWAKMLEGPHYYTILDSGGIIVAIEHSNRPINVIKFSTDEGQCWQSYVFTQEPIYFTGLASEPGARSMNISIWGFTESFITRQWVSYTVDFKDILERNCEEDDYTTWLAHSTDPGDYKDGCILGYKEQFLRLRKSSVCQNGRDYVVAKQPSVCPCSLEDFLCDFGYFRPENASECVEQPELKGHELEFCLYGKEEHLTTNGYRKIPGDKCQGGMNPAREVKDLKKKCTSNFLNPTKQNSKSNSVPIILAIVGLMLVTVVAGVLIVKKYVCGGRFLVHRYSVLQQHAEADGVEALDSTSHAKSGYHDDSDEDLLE
# UniProt Q6Q899: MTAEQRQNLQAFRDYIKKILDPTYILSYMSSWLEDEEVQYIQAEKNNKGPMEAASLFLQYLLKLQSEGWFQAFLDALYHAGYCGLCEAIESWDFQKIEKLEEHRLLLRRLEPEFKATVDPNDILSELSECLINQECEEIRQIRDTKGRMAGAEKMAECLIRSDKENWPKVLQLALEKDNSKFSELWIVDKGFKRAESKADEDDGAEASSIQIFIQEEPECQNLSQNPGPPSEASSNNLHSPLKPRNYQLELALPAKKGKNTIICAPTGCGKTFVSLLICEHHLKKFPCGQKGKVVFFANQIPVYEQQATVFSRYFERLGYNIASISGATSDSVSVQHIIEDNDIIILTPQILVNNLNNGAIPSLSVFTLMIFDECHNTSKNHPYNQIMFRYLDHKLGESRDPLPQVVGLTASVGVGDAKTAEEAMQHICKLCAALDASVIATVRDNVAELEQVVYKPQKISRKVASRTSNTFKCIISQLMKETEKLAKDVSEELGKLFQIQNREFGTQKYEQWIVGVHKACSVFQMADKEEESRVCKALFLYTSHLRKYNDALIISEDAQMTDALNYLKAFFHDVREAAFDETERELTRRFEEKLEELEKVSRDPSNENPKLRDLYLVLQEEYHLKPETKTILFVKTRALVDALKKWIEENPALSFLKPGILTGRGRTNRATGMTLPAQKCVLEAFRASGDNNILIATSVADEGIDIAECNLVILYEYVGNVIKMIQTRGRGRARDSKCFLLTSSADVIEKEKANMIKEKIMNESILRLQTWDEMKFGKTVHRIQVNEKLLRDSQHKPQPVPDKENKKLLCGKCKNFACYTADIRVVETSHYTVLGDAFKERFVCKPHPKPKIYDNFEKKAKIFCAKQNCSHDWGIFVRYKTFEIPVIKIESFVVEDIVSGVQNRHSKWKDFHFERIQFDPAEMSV
# UniProt Q6DIC0, whole entry: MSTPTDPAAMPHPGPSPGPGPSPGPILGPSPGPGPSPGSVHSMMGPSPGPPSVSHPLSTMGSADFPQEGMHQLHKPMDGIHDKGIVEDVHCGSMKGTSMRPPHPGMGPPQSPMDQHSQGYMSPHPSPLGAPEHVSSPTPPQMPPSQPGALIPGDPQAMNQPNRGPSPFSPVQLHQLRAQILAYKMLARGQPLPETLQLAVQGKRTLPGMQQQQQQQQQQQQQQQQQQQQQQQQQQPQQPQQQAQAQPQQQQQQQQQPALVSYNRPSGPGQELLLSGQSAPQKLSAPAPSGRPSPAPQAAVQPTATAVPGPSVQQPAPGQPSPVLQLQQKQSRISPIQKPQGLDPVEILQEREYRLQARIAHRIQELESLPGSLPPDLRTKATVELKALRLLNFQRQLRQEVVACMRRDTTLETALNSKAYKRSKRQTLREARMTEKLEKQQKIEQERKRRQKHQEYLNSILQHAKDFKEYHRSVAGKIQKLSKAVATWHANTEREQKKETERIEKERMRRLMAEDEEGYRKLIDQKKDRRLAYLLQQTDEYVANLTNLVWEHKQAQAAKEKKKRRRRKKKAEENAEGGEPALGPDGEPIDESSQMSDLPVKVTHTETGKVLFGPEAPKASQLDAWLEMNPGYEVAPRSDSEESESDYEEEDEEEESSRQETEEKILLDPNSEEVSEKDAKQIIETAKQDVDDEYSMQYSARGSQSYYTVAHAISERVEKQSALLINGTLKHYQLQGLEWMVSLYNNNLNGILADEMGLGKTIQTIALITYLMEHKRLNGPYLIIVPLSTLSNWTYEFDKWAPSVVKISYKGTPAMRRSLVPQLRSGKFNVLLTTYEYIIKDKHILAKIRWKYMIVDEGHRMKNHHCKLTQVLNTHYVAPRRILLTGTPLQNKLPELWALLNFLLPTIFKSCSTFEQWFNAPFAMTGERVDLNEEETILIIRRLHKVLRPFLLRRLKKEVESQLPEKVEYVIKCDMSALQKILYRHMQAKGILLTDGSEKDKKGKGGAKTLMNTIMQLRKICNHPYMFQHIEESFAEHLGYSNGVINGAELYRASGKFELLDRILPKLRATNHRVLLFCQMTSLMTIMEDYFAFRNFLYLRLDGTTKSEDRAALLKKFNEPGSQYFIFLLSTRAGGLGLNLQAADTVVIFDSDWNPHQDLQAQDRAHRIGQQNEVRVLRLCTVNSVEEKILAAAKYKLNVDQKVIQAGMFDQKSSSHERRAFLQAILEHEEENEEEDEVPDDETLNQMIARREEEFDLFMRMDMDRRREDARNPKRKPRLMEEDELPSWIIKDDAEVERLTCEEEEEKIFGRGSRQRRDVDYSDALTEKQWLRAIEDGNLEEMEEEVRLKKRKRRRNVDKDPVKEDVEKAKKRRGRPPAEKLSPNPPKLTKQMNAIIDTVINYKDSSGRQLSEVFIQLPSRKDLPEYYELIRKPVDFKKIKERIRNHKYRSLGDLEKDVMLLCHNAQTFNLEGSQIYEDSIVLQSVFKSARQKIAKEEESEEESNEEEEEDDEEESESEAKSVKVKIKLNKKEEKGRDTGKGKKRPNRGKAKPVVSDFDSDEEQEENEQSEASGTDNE
# UniProt Q6PAV2: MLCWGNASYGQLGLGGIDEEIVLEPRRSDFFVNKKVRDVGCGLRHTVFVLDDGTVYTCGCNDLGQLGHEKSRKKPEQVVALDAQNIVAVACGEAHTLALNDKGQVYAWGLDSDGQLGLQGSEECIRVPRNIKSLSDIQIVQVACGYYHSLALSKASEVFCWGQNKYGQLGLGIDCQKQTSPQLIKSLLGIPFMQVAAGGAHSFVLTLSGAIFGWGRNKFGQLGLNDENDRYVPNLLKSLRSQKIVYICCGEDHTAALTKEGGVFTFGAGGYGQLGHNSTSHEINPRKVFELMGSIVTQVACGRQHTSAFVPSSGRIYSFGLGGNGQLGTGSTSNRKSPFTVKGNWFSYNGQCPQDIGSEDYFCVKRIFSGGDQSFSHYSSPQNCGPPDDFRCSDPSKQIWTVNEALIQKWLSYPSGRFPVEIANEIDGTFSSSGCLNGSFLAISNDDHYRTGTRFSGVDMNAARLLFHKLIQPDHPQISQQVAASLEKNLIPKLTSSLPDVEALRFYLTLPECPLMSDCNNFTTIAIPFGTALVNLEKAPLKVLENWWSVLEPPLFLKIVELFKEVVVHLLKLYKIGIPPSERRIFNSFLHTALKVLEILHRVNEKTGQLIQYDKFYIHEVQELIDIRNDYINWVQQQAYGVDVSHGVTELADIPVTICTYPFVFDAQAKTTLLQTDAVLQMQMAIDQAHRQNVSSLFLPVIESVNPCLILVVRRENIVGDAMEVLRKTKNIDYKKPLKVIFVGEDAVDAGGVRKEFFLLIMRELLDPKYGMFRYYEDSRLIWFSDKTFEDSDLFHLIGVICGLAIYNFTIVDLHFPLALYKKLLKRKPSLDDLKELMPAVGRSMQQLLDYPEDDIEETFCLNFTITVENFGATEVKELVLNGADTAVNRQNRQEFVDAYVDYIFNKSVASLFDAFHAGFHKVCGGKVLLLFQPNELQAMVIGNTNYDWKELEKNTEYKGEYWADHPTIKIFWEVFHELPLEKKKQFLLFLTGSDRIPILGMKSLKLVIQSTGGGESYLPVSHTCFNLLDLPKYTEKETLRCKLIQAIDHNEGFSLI
# UniProt Q6TYB5: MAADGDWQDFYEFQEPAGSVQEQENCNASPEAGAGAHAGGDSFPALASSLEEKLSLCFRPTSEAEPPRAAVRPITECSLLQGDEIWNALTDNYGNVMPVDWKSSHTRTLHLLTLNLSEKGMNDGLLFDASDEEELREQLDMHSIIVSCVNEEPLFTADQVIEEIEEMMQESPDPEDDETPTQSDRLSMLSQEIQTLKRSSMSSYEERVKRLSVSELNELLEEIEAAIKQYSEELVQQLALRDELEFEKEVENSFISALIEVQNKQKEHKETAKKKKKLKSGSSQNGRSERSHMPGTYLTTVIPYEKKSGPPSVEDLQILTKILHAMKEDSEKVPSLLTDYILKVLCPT
# The list shows a part of the results. Most values lie at the level of the controls, where differences are scatter.
# Compound: CN[C@@H]1C[C@H]2O[C@@](C)([C@@H]1OC)n1c3ccccc3c3c4c(c5c6ccccc6n2c5c31)C(=O)NC4 [staurosporine]
# Assay: log2 fold change of tryptic peptide abundance, ligand vs vehicle (limited proteolysis) (log2 ratio); higher = more trypsin-susceptible (destabilized)
# Conditions: ligand concentration: 20 uM; sample: mouse liver crude lysate; replicate design: treated separately
row,Target,log2 fold change
1,"UniProt Q6PEV3 (peptide sequence: AAAPRPPGSAASGRPHDDTDSNR, peptide start residue: 120)",0.477
2,"UniProt Q6PGH0 (peptide sequence: SDYPMTDGQLR, peptide start residue: 38)",0.0246
3,"UniProt Q6PHQ8 (peptide sequence: VFGTHLMQDMVK, peptide start residue: 382)",0.28
4,"UniProt Q6A085 (peptide sequence: AFTQSTNLIK, peptide start residue: 241)",0.475
5,"UniProt Q6URW6 (peptide sequence: AQTSAAGQGKEEAVK, peptide start residue: 1652)",-0.719
6,"UniProt Q6PHZ5 (peptide sequence: SLSPVAAPPLREPR, peptide start residue: 261)",-0.414
7,"UniProt Q6PIE5 (peptide sequence: ACVVHGSDLK, peptide start residue: 662)",-0.172
8,"UniProt Q6VVW5 (peptide sequence: GSSYGSLMTAHGK, peptide start residue: 521)",-0.119
9,"UniProt Q6NXK5 (peptide sequence: WKDYLPVGQR, peptide start residue: 34)",0.4
10,"UniProt Q6P5C5 (peptide sequence: RALAGLTPEVQVEGLLHPSPR, peptide start residue: 225)",-0.144
11,"UniProt Q6GQS1 (peptide sequence: QLVAGAVAGAVSR, peptide start residue: 187)",-0.484
12,"UniProt Q6PGF7 (peptide sequence: NSEEMWR, peptide start residue: 561)",-0.35
13,"UniProt Q6QI06 (peptide sequence: RAQSLKAPSIATIK, peptide start residue: 1298)",-0.392
14,"UniProt Q6PHU5 (peptide sequence: YSVLQQHAEADGVEALDSTSHAK, peptide start residue: 790)",-0.0762
15,"UniProt Q6PAJ1 (peptide sequence: GSLASGALDPTKVSELDLEK, peptide start residue: 474)",-0.339
16,"UniProt Q6P5D3 (peptide sequence: SLFAENSK, peptide start residue: 514)",-0.167
17,"UniProt Q6Q899 (peptide sequence: QNLQAFR, peptide start residue: 7)",0.358
18,"UniProt Q6DIC0 (peptide sequence: GPSPFSPVQLHQLR, peptide start residue: 164)",-0.309
19,"UniProt Q6PAV2 (peptide sequence: FSGVDMNAAR, peptide start residue: 455)",-0.192
20,"UniProt Q6TYB5 (peptide sequence: LSMLSQEIQTLKR, peptide start residue: 186)",0.139
21,"UniProt Q69ZZ6 (peptide sequence: IAYQSYER, peptide start residue: 533)",0.482
22,"UniProt Q6P9Q4 (peptide sequence: KPVSPPSPK, peptide start residue: 521)",-0.399
23,"UniProt Q6P3Z3 (peptide sequence: LLKPTAVPSIFHLSEK, peptide start residue: 75)",-0.534
24,"UniProt Q6PCP5 (peptide sequence: RERSMSENAVR, peptide start residue: 126)",-0.579

# Shown bar-delimited: entries from further up
row | Target | log2 fold change
9 | UniProt Q6NXK5 (peptide sequence: WKDYLPVGQR, peptide start residue: 34) | 0.4
24 | UniProt Q6PCP5 (peptide sequence: RERSMSENAVR, peptide start residue: 126) | -0.579
